The values that follow come from publication PMC9569496.

In the assay the target is T1, human cyclin H (human (endogenous in HFFs)) (UniProt P51946).
T1 sequence: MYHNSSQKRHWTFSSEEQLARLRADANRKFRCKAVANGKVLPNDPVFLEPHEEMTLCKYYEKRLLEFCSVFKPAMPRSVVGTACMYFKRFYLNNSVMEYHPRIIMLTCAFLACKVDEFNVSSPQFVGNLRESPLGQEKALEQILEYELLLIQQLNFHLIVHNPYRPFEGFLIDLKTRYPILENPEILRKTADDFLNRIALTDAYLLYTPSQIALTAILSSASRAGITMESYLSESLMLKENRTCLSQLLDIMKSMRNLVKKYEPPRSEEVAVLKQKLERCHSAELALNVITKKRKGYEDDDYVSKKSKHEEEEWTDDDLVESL
In words: co-IP; HFFs in T75 flasks infected with HCMV TB40-IE2-YFP WT or ORF-UL97 point mutants, harvested 4-7 d.p.i.; cyclins T1, H, B1 immunoprecipitated with specific antibodies, pUL97 detected by Western blot; chicken Fc fragment as specificity control. (Immunoblotting shows a protein as a band on a membrane.)

These are yes or no findings as the source states them, for the method shown. Binding seen in cells or lysates may run through a third protein. A result given as binding can be weak or reduced; the word gives no strength.

For “HCMV protein kinase pUL97, strain TB40 wild type (TB40-IE2-YFP) (human cytomegalovirus, strain TB40) (enzyme)”, the binding entry was “binds”.
